{"sequences": {"note": "Protein sequences, listed by entry. Tags and fused reporters are not part of them.", "UniProt P9WIA1": "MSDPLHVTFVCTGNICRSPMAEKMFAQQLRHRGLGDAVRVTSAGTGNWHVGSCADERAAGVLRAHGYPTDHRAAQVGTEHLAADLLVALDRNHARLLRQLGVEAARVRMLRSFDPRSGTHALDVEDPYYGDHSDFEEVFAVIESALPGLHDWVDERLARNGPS", "UniProt Q96LA8": "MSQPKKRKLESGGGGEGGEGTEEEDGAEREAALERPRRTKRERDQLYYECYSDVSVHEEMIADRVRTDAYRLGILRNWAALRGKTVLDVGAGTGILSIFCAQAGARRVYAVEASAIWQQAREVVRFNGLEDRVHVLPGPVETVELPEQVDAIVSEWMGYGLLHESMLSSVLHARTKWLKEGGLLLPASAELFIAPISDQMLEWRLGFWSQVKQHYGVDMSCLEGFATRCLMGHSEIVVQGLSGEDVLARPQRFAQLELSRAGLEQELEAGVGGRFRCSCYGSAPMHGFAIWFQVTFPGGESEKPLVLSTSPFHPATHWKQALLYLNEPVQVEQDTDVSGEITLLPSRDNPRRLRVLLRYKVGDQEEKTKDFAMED"}, "source": "paper PMC10023711", "biological_target": "pGBKT7-PtpA (Gal4-BD fusion of Mtb PtpA) (Mycobacterium tuberculosis) (UniProt P9WIA1)", "assay": "two-hybrid", "note": "No constants are given. Whether binding was seen depends on the method and setting. Some binding calls cover weakened binding; strength is not graded here."}
{"substance": "pGADT7-PRMT6 (from UniProt Q96LA8 1-375)", "values": [{"measurement": "binding", "result": "binds"}]}
